# Literature values as cited in publication PMC4900804, “Allosteric modulation in monomers and oligomers of a G protein-coupled receptor” (eLife, 2016).
# Tested on: M2 receptor in Sf9 membranes
# Settings: cited from earlier work
smiles,measurement,value
CC[N+](CC)(CC)CCOc1cccc(OCC[N+](CC)(CC)CC)c1OCC[N+](CC)(CC)CC [gallamine],F1,−1.51
same,F2,2.51 ± 0.82
same,nH(1),0.97 ± 0.30
same,nH(2),0.80 ± 0.14
